# Assay results published in patent US20090098142A1.
# Amino acid sequences for entries named in this document (tags omitted). A change or cut given only in a name is not applied to a line headed by its entry.
# UniProt Q5I6E4: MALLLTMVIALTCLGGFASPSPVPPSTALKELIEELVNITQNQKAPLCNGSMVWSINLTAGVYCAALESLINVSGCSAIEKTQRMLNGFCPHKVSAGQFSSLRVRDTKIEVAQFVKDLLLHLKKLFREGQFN
# No constants are given. Whether binding was seen depends on the method and setting. Some entries that bind do so weakly or less than the wild type. Where a sequence is shown, tags or fusion partners need not be part of it.
# Biological target: T1, sIL-13Rα2-Fc (soluble human IL-13 receptor alpha2 with a human IgG1 Fc tail) (human) (UniProt Q14627)
# T1 sequence (looked up): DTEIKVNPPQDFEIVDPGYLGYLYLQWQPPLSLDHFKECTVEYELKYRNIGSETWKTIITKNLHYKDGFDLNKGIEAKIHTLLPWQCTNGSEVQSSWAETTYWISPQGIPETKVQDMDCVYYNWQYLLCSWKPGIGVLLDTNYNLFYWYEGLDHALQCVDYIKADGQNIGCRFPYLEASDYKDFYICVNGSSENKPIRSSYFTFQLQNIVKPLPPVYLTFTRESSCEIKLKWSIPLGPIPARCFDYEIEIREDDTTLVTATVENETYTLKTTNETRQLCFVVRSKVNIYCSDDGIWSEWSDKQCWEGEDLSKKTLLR
# Assay: SPR (BIACORE), sIL-13Rα2-Fc amine-coupled to a CM5 chip
substance,measurement,value
cynomolgus monkey IL-13 (NHP IL-13) (from UniProt Q5I6E4 21-132) (ligand),binding,binds
